These are yes or no findings as the source states them, for the method shown. In cells and extracts the contact can be indirect. Some entries that bind do so weakly or less than the wild type.
Molecular target: T1, integrin β5 (mouse (endogenous in RAW 264.7)) (UniProt O70309)
T1 sequence: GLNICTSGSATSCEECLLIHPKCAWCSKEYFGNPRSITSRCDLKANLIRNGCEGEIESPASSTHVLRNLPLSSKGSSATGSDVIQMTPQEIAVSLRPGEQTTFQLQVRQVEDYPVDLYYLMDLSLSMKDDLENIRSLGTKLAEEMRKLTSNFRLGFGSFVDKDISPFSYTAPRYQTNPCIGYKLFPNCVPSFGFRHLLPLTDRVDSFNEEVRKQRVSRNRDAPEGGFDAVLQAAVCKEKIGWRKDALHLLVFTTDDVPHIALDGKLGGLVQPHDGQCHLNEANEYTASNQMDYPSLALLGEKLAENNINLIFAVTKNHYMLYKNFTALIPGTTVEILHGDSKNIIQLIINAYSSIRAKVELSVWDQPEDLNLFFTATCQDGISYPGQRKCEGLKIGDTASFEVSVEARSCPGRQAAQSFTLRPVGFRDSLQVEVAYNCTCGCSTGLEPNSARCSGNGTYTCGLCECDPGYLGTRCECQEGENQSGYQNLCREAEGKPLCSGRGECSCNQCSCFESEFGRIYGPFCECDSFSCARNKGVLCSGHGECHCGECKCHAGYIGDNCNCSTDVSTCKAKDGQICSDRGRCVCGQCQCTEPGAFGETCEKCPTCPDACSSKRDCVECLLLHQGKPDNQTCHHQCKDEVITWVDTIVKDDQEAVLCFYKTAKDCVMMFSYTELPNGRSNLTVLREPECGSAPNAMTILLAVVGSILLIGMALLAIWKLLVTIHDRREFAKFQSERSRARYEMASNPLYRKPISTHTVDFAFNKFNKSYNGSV
Assay: co-IP; RAW 264.7 cells lysed with NP-40 lysis buffer with phosphatase and protease inhibitors; lysates incubated overnight with individual antibody and protein A/G beads, washed four times with lysis buffer, SDS-PAGE and immunoblotting

Amino acid sequences for entries named in this document (tags omitted). Residues count along the entry.
UniProt P02469, residues 22-1786: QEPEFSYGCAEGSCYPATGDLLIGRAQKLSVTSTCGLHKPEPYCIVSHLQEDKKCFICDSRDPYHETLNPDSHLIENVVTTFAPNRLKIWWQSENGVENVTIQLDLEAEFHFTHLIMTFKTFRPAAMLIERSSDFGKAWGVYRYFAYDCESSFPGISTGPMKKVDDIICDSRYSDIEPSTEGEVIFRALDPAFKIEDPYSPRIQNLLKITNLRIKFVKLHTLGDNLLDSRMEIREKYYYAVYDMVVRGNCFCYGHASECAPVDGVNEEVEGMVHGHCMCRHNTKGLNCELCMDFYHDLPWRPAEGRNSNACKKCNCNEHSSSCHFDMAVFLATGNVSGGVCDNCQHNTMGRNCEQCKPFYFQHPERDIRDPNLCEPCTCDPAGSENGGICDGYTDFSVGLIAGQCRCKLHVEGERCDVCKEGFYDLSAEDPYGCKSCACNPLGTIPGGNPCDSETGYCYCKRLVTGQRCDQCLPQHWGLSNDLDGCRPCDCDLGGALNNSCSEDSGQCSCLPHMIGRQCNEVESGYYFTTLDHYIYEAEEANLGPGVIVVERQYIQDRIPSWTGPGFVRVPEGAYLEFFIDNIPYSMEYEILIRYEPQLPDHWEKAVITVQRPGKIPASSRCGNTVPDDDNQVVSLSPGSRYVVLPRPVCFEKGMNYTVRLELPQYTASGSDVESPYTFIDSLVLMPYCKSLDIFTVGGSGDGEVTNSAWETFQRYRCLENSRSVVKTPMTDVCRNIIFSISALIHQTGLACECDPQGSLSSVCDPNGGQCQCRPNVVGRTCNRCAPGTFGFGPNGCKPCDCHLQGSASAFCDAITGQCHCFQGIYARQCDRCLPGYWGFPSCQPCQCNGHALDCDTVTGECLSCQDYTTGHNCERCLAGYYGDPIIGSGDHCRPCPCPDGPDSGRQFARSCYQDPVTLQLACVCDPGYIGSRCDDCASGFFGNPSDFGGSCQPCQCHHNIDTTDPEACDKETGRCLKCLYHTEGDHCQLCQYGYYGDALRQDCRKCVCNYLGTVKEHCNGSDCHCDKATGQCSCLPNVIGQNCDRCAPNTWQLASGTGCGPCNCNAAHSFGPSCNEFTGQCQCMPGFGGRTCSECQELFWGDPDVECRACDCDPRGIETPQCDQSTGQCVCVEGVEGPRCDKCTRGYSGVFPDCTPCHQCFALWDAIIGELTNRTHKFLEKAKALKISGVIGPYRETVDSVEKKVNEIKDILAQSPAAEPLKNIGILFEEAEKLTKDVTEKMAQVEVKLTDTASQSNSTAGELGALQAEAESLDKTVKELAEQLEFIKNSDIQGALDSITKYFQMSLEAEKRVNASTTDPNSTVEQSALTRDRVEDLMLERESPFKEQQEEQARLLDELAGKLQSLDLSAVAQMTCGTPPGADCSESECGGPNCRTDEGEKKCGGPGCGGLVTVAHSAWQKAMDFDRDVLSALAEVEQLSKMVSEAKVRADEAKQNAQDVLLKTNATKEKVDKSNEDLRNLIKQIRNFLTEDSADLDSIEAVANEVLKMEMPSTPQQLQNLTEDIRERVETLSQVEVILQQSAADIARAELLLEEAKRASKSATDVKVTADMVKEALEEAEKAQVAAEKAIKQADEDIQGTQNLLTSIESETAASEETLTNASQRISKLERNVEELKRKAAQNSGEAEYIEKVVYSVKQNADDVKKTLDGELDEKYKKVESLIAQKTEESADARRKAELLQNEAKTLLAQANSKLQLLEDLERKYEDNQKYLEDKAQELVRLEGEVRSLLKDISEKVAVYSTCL
UniProt P02468, residues 34-1607: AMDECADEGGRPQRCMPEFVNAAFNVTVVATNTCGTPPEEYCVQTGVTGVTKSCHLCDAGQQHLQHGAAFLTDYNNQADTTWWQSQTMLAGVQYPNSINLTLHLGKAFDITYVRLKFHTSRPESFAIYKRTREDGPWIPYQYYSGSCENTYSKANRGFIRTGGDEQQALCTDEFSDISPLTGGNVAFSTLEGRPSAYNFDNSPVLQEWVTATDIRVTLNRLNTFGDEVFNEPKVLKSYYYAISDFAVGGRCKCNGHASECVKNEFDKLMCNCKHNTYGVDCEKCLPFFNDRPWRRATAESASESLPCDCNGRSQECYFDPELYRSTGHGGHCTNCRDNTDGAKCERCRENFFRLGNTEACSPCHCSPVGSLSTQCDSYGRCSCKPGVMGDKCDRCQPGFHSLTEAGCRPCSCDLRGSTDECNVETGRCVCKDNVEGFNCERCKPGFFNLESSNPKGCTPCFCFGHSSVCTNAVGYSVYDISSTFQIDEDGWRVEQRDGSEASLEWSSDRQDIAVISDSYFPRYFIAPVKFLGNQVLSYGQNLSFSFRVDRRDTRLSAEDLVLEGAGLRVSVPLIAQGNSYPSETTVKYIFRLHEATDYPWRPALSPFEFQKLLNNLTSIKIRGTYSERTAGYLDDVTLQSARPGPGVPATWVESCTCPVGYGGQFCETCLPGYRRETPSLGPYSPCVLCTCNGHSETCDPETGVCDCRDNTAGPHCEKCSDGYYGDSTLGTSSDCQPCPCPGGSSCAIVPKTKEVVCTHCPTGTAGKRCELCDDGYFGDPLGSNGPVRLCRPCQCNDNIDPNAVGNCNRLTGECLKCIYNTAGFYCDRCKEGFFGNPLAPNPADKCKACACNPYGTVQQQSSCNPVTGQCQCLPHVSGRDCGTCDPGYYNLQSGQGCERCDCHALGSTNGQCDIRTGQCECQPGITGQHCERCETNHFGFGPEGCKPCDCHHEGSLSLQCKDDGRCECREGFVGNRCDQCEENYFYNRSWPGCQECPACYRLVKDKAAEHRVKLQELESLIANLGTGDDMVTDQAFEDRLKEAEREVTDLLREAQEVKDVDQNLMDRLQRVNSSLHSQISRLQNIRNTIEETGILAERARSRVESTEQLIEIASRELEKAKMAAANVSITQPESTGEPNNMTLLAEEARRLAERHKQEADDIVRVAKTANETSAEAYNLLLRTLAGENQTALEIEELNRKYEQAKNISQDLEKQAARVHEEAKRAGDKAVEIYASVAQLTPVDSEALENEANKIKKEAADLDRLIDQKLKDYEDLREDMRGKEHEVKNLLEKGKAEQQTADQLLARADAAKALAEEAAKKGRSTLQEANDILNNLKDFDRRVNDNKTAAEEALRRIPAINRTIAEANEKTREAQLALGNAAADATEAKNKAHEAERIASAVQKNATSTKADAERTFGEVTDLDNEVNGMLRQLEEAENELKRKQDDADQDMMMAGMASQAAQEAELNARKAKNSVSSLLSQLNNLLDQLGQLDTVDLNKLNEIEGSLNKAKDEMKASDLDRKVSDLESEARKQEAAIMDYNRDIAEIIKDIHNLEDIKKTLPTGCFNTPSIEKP

Substance	binding
LAMB1 (from UniProt P02469 22-1786)	binds
LAMC1 (from UniProt P02468 34-1607)	binds
